# Results as given in publication PMC9357983.
# These are yes or no findings as the source states them, for the method shown.
# Target: AtCDC20.1 WD40 (Arabidopsis thaliana CDC20.1 C-terminal construct with the WD40 domain and IR motif) (Arabidopsis thaliana) (UniProt Q9SZA4)
# Assay: SEC + SEC-MALS; Superdex 75 HR10/30, 20°C, 25 mM Tris pH 8.0, 150 mM NaCl, 5 mM β-mercaptoethanol, 0.5 ml/min; 100 μL of 1 mg/ml protein injected; both purified
binder,measurement,value
"AtCDC20.1 WD40 (Arabidopsis thaliana CDC20.1 C-terminal construct with the WD40 domain and IR motif) (domain or fragment, UniProt Q9SZA4 120-457) PRRYIPQTSERTLDAPDIVDDFYLNLLDWGSANVLAIALDHTVYLWDASTGSTSELVTIDEEKGPVTSINWAPDGRHVAVGLNNSEVQLWDSASNRQLRTLKGGHQSRVGSLAWNNHILTTGGMDGLIINNDVRIRSPIVETYRGHTQEVCGLKWSGSGQQLASGGNDNVVHIWDRSVASSNSTTQWLHRLEEHTSAVKALAWCPFQANLLATGGGGGDRTIKFWNTHTGACLNSVDTGSQVCSLLWSKNERELLSSHGFTQNQLTLWKYPSMVKMAELTGHTSRVLYMAQSPDGCTVASAAGDETLRFWNVFGVPETAKKAAPKAVSEPFSHVNRIR",binding,no binding (tested: 1 mg/ml injected)
